The values below come from article doi:10.1101/2025.07.01.662673.

Protein sequences, listed by entry. Tags and fused reporters are not part of them. Residues count along the entry.
UniProt P31431, residues 19-198: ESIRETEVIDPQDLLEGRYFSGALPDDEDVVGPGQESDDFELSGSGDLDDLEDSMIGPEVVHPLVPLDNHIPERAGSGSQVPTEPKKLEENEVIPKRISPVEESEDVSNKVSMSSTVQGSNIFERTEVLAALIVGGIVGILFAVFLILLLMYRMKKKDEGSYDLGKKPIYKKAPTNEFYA

For this experiment, the target named is T1, Kallikrein-related peptidase 8 (human) (UniProt O60259).
T1 sequence: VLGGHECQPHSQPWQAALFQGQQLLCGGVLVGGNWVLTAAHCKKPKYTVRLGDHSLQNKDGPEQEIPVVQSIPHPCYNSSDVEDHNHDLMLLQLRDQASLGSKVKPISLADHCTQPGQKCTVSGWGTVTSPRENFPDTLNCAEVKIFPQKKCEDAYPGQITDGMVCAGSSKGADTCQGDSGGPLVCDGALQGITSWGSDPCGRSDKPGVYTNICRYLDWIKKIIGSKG
Kind of experiment: affinity purification with mass spectrometry.

No constants are given. Whether binding was seen depends on the method and setting. In cells and extracts the contact can be indirect. Here binding means that the protein was enriched with, or labelled near, the bait; the list need not be complete.

For syndecan-4 (from UniProt P31431 19-198), the binding result is listed as “binds”.
